Source: US9499511B2, “N-substituted hydroxylamine derivatives with carbon-based leaving groups” (The Johns Hopkins University, priority 2011, dated 2016)
Where a name gives a salt, the structure may show the parent alone. Marks after values point to notes of the source that are not given here.

Assay: Decomposition monitored by 1H NMR spectroscopy (carbanion yield, kinetics, half-life)
Type: physicochemical
Details: yields of carbanions 1b-4b, 6b by 1H NMR spectroscopy
Description: […] In each case, the bottom spectrum was collected at the start of the experiment, and the top spectrum after complete decomposition.
NMR spectra were obtained on a Bruker Avance 400 MHz FT-NMR spectrometer. […] High-resolution mass spectra were obtained on a VG Analytical VG70SE magnetic sector mass spectrometer operating in fast atom bombardment (FAB) mode. […]

| SMILES | % Carbanion |
| --- | --- |
| CC1(C)OC(=O)C(C)(NO)C(=O)O1 [Compound 1a, 5-(N-hydroxylamine)-5-methyl-Meldrum's acid hydrochloride monohydrate] | 4^d % |
| CO/N=C(\C)C1(NO)C(=O)OC(C)(C)OC1=O [Compound 2a, 5-(N-hydroxylamine)-5-(acetyl-O-methoxyoxime)-Meldrum's acid] | 34^d % |
| CCC1(NO)C(=O)N(C)C(=O)N(C)C1=O [Compound 3a, 5-(N-hydroxylamine)-5-ethyl-N,N-dimethylbarbituric acid hydrochloride] | 6^e % |
| CO/N=C(\C)C1(NO)C(=O)N(C)C(=O)N(C)C1=O [Compound 4a, 5-(N-hydroxylamine)-5-(acetyl-O-methoxyoxime)-N,N-dimethylbarbituric acid] | >95% |
| CO/N=C(\C)C1(NO)C(=O)N(c2ccccc2)N=C1C (centres unmarked) [Compound 6a, 4-(N-hydroxylamine)-4-(acetyl-O-methoxyoxime)-N-phenyl-5-methyl-pyrazolone] | >95% |
